According to patent US20100204091A1:
Results are given in words; binding and its absence hold for the method and conditions named. Binding seen in cells or lysates may run through a third protein. Some entries that bind do so weakly or less than the wild type.

Protein sequences, listed by entry. Tags and fused reporters are not part of them.
UniProt Q99558: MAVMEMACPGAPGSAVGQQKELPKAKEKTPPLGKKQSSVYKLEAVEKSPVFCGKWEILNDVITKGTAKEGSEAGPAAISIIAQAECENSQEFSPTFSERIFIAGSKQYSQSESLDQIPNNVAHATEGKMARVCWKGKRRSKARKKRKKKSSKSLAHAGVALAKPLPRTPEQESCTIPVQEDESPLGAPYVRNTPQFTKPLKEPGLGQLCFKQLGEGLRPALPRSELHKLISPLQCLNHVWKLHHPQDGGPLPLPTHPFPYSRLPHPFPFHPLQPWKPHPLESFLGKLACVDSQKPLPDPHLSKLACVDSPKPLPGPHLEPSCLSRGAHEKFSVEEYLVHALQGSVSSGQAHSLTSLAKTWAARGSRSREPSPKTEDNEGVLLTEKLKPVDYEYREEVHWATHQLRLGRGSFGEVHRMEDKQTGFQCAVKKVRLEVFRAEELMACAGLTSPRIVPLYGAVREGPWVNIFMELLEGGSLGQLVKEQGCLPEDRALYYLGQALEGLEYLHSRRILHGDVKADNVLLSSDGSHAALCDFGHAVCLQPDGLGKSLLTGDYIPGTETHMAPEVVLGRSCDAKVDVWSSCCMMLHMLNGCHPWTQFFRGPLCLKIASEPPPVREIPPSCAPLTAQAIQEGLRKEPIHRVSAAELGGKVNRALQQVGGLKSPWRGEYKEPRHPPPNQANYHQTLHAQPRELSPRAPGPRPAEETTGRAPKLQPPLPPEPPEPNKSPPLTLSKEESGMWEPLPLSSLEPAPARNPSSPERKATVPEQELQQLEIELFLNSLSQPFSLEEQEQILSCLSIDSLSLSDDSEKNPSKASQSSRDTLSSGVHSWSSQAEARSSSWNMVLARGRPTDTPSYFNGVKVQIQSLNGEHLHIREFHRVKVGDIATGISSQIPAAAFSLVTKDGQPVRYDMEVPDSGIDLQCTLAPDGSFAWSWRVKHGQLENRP

Columns and labels:
[1] = biological target: T1, SIVA2 (human) (UniProt O15304); experiment: co-precipitation of NIK, SIVA2 and TRAF3 from transiently transfected HEK 293T cells (anti FLAG IP of SIVA2, anti-TRAF3 blot)
T1 sequence: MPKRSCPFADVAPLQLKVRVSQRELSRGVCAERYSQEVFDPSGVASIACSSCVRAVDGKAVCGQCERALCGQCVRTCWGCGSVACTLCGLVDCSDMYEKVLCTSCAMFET

[2] = biological target: T1, SIVA2 (human); experiment: co-immunoprecipitation from transiently transfected HEK-293T cells
[3] = biological target: T1, SIVA2 (human); experiment: co-immunoprecipitation with anti-NIK from HeLa cells, SIVA2 blot

Measured: binding

NF-κB-inducing kinase, NIK, (MAP3K14) (from UniProt Q99558 1-947) (enzyme)
binds: all assays above
